Experimental findings from PubChem BioAssay AID2685 (National Center for Advancing Translational Sciences (NCATS), 2010) are described below.

SMILES strings stand for the structures. Some of the results follow. Further columns of the screen follow, without active or inactive calls. The list favours compounds with an active or inconclusive main result. Potencies come from curve fits of mixed quality, noted in brackets.

The nature of this experiment: qHTS Assay for Lipid Storage Modulators in Drosophila S3 Cells.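 On cell number change: cells counted by Cell Tracker Red CMTPX staining in the red channel.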 The following applies: BODIPY lipid droplet fluorescence, 18-24 h; for cell number change: measured here: cell count max response, cells fed with added oleic acid. In a few lines:
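Drosophila S3 cells got compounds at several concentrations plus oleic acid (400 uM solution). Laser-scanning cytometry with 488 nm excitation read lipid droplets at 500-530 nm and cells at 575-640 nm. Percent activity was relative to 20 uM Triacsin C.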
A general note: In qHTS, concentration-response curves come from the screen itself.

Setting [1] is: measured here: cell number channel AC50, cells fed with added oleic acid.
[2] abbreviates: measured here: lipid fluorescence (Fed channel) AC50, cells fed with added oleic acid.

With `O=C(c1ccc(Cn2c(=S)[nH]c3ccc(N4CCOCC4)cc3c2=O)cc1)N1CCN(c2ccc(F)cc2)CC1`, the cell number change is -2.29%. Also, under setting [1], the AC50 is 4.61 µM [falling, single point]. Moreover, under setting [2], the AC50 is 6.51 µM [falling, single point].

Regarding `Cc1ccc2nc(-c3ccc(NC(=O)C4CCCO4)cc3)[nH]c2c1` (configuration not stated), the cell number change amounted to 74%. Also, under setting [1], the AC50 was 7.31 µM [rising, partial curve]. The AC50 under setting [2] is 6.51 µM [rising, single point].

On to `CCC(CC)C(=O)Nc1cc(C(=O)OC)ccc1C(=O)OC`, for which the AC50 was 6.51 µM [rising, partial curve, poor fit] under setting [1] and 0.461 µM [falling, single point] under setting [2].

Turning to `Cc1onc(-c2ccccc2)c1C(=O)Nc1ccc(Cl)c(S(=O)(=O)N2CCOCC2)c1`, the cell number change amounted to 6.86%. Under setting [2], the AC50 is 0.92 µM [rising, full curve, poor fit].

For the compound `N#Cc1ccccc1OCC(=O)NC(=O)NC1CCS(=O)(=O)C1` (configuration not stated), the cell number change amounted to 14.7%. Moreover, under setting [2], the AC50 was 0.058 µM [falling, full curve, poor fit].

For the compound `O=C(COC(=O)c1ccc(NS(=O)(=O)c2cccs2)cc1O)Nc1ccc(F)cc1`, the cell number change was -46.4%. For the same compound, the AC50 under setting [1] was 0.116 µM [falling, full curve].

Regarding `COc1cccc(-n2c(SCC(=O)NCCC3=CCCCC3)nc3n[nH]c(C)c3c2=N)c1`, the cell number change stood at 2.11%.

`COc1ccc(Oc2cc(C(F)(F)F)cnc2C(N)=O)cc1`: the cell number change turned out to be 37.2%. Further, the AC50 under setting [1] is 23.1 µM [rising, single point]. Further, the AC50 under setting [2] is 25.9 µM [rising, single point].

With `COc1ccc(C(Nc2ccccn2)c2c(NC(=O)c3ccco3)sc(C)c2C)cc1` (configuration not stated), the cell number change was found to be 7.46%. Besides, the AC50 under setting [2] is 5.17 µM [rising, partial curve, poor fit].

In the case of `O=C(CNC(=O)c1cccc(Cl)c1)N/N=C/c1cccnc1`, the cell number change is 30.5%. The AC50 under setting [1] was 16.4 µM [rising, partial curve, poor fit].

As for `COc1cccc(CNn2cnnc2)c1OCc1ccc(F)cc1`, the cell number change worked out at 22.1%. Also, the AC50 under setting [2] is 0.461 µM [rising, full curve].

Regarding `O=C(CN1CCCSc2ccccc21)N1CCN(S(=O)(=O)c2cccc(F)c2)CC1`, the cell number change is -5.31%. In addition, the AC50 under setting [2] was 0.146 µM [rising, full curve, poor fit].

As for `Cc1ccc(S(=O)(=O)N2CCN(C(=O)COC(=O)c3ccc(C(C)(C)C)cc3)CC2)c(C)c1`, the cell number change turned out to be 28.7%.

As for `S=c1[nH]nc(C(c2ccccc2)C2CCCCC2)o1` (configuration not stated), the cell number change is -23.7%. For the same compound, under setting [1], the AC50 was 0.461 µM [falling, full curve, poor fit]. Further, the AC50 under setting [2] is 0.82 µM [falling, full curve, poor fit].

With `Cc1ccccc1CNC(=O)Nc1ccc(Cl)cc1`, the cell number change was -20.4%. For the same compound, the AC50 under setting [2] was 16.4 µM [rising, single point].

In general, AC50 refers to the concentration giving half of the maximal activity seen. Higher therefore signals activity only at high concentration.
